This passage reports binding results from article PMC6888875.

Protein sequences, listed by entry. Tags and fused reporters are not part of them. Residues count along the entry.
UniProt Q9BXM7, residues 78-581: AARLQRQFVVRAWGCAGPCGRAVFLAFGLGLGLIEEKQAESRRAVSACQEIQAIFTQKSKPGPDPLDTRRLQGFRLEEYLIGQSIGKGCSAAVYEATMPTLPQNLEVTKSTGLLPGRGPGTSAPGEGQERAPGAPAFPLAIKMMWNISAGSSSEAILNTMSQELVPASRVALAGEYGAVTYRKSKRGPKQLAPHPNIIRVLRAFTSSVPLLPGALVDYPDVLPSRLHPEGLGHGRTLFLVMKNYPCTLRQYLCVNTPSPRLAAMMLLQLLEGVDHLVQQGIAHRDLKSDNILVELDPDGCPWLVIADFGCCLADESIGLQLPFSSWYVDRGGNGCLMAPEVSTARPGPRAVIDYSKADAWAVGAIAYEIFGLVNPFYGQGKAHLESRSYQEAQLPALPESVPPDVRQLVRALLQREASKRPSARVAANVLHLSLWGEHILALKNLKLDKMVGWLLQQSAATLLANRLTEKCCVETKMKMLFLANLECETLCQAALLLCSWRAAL

These are yes or no findings as the source states them, for the method shown. Binding seen in cells or lysates may run through a third protein. Some binding calls cover weakened binding; strength is not graded here. Sequences can lack the tags named with a protein.

The experiment has as its target PINK1-V5 (UniProt Q9BXM7). Briefly: co-IP; co-transfection of TAMM41-GFP and PINK1-V5; cells lysed 40 min on ice in lysis buffer with protease inhibitors (20 mM Tris pH 7.4, 137 mM NaCl, 2 mM EDTA, 10% glycerol, 1% NP-40); lysates incubated with the indicated antibodies and protein A/G-agarose beads overnight at 4 °C; western blot. In general terms: In western blotting, separated proteins are transferred to a membrane and probed.

B1: TAMM41-GFP (protein, UniProt Q96BW9 1-452)
chain: MALQTLQSSWVTFRKILSHFPEELSLAFVYGSGVYRQAGPSSDQKNAMLDFVFTVDDPVAWHSKNLKKNWSHYSFLKVLGPKIITSIQNNYGAGVYYNSLIMCNGRLIKYGVISTNVLIEDLLNWNNLYIAGRLQKPVKIISVNEDVTLRSALDRNLKSAVTAAFLMLPESFSEEDLFIEIAGLSYSGDFRMVVGEDKTKVLNIVKPNIAHFRELYGSILQENPQVVYKSQQGWLEIDKSPEGQFTQLMTLPKTLQQQINHIMDPPGKNRDVEETLFQVAHDPDCGDVVRLGLSAIVRPSSIRQSTKGIFTAGKSFGNPCVTYLLTEWLPHSWLQCKALYLLGACEMLSFDGHKLGYCSKVQTGITAAEPGGRTMSDHWQCCWKLYCPSEFSETLPVCRVFPSYCFIYQSYRCIGLQKQQHLCSPSSSPSLRQLLPSVLVGYFCCYCHFSKW
Consider B1, for which the binding entry is reported as “binds”.
